Measured values from PMC2597178.
No constants are given. Whether binding was seen depends on the method and setting. In cells and extracts the contact can be indirect. Binding can be weak; no strength is given.

The chains behind the UniProt entries cited, without tags or fusion partners. Where a name states a change or a piece, a line headed by the entry shows the natural chain unless it says otherwise.
UniProt A2D7B7: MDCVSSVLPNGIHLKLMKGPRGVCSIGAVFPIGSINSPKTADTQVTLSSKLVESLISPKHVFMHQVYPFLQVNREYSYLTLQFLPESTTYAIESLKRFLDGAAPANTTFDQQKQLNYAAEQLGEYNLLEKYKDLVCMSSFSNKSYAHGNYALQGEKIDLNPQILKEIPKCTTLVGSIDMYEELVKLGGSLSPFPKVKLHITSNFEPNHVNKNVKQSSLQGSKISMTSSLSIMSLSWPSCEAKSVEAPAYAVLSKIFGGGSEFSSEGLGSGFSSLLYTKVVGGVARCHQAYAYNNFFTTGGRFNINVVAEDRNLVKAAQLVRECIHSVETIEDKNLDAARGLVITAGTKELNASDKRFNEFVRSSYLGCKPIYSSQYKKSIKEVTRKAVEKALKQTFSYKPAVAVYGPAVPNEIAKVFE

Biological target: Trichomonas vaginalis hydrogenosomal processing peptidase β subunit, βHPP-His (Trichomonas vaginalis) (UniProt A2ES04)
Test: pull-down; lysates of E. coli expressing βHPP-His and non-tagged αHPP incubated 30 min on ice in 20 mM Tris, 20 mM NaCl (pH 8.6), 1 mM MnCl2; heterodimer purified on a nickel column under native conditions

binding: binds
Substance: Trichomonas vaginalis hydrogenosomal processing peptidase α subunit, non-tagged αHPP (from UniProt A2D7B7)
